Values quoted from earlier work in US20150217046A1, “DOSING REGIMENS FOR SUBCUTANEOUSLY INFUSIBLE ACIDIC COMPOSITIONS” (SynAgile Corporation, priority 2012, published 2015).
Like-named read-outs stand apart in the source and are kept apart here.

Details: cited from earlier work

For N[C@@H](Cc1ccc(O)c(O)c1)C(=O)O [levodopa], the plasma half-life (patients receiving also an inhibitor of L-DOPA decarboxylase) is given as “about 10^2 minutes” and the plasma half-life (with co-administered CD) is given as “approximately 90 minutes”.
